Test results from article PMC6833972.
These are yes or no findings as the source states them, for the method shown. In cells and extracts the contact can be indirect. Some entries that bind do so weakly or less than the wild type. Tags and fused reporters may be left off the sequences shown.

How the values were obtained:
Test in all cases: co-IP; HEK293 cells co-transfected (KCNQ1:KCNE plasmid 1:1), lysed 36-48 h later in 25 mM Tris-HCl pH 7.4, 150 mM NaCl, 1% Nonidet P-40, 5 mM EDTA; IP with mouse anti-HA at 4°C overnight, dynabeads protein G; blot with anti-Myc and anti-HA; mouse normal IgG as negative control; apparent
[1] = molecular target: T1, HA-KCNE2 C-terminal (amino acid residues 73-123) deletion mutant (UniProt Q9Y6J6)
T1 sequence: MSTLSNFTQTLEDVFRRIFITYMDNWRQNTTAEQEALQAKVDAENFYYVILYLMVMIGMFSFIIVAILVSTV

HA-KCNE2, wild type = molecular target: T2, HA-KCNE2, wild type (UniProt Q9Y6J6)
T2 sequence: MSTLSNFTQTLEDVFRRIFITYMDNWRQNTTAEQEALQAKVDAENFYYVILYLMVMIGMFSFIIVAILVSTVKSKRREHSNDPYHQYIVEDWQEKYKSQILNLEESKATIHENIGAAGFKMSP

[2] = molecular target: T3, HA-KCNE2 truncation containing only the KSKR sequence in the C-terminus (UniProt Q9Y6J6)
T3 sequence: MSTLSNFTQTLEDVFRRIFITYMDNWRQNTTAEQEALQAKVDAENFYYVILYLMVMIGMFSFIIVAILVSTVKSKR

- binding [1]: binds
- binding (HA-KCNE2, wild type): binds
- binding [2]: binds
Substance: KCNQ1 with a Myc tag (from UniProt P51787 1-676)
